PubChem BioAssay AID1259405 – NCATS, 2018
Shown is one part, drawn at random, of about 50,000 reagents. About 4,000 of them (8%) count as active. 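Mouse siRNA library applied to hamster cells; one well for each siRNA.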 The numbers tell different reagents against one gene apart.

Screen: 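Mouse-designed siRNAs used to find CHO productivity engineering targets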 (primary screen)
System: Chinese hamster CHO-K1 ovary cells with stable secreted eGFP expression
Reagent: single siRNA against mouse genes, 0.8 pmol siRNA per well (2 µl of 400 nM stock)
Time to read-out: 3 days
Detection: 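Percent of the per-plate non-targeting control median for intracellular GFP per well by laser scanning cytometry and for cell viability by ATP luminescence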
Direction: GFP, % of control: higher = more GFP per well, higher productivity; viability (ATP), % of control: higher = more viable cells (more ATP)
Hit rule: 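Called active when intracellular GFP, relative to negative control, is at or above 120%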

Target gene	reagent	GFP, % of control	viability (ATP), % of control	outcome
Ccdc187 (coiled-coil domain containing 187)	1	103	119	inactive
Ccdc187 (coiled-coil domain containing 187)	2	111	37	inactive
Ccdc187 (coiled-coil domain containing 187)	3	74.4	54.9	inactive
Insm2 (insulinoma-associated 2)	1	55.6	38.4	inactive
Insm2 (insulinoma-associated 2)	2	116	68.9	inactive
Insm2 (insulinoma-associated 2)	3	120	87.8	inactive
Lman1l (lectin, mannose-binding 1 like)	1	53.2	57.4	inactive
Lman1l (lectin, mannose-binding 1 like)	2	69.5	40.7	inactive
Lman1l (lectin, mannose-binding 1 like)	3	54.5	69.7	inactive
Snca (synuclein, alpha)	1	170	129	active
Snca (synuclein, alpha)	2	90.3	80.5	inactive
Hycc1 (hyccin PI4KA lipid kinase complex subunit 1)	1	95.6	75	inactive
Hycc1 (hyccin PI4KA lipid kinase complex subunit 1)	2	83.8	88.8	inactive
Hycc1 (hyccin PI4KA lipid kinase complex subunit 1)	3	126	93	active
Pogz (pogo transposable element with ZNF domain)	1	164	144	active
Pogz (pogo transposable element with ZNF domain)	2	63.6	69.3	inactive
Cfap418 (cilia and flagella associated protein 418)	1	69.5	92.8	inactive
Cfap418 (cilia and flagella associated protein 418)	2	95	96.1	inactive
Cfap418 (cilia and flagella associated protein 418)	3	56.5	69.5	inactive
Ifnab (interferon alpha B)	1	70.9	62	inactive
Ifnab (interferon alpha B)	2	119	56.2	inactive
Ifnab (interferon alpha B)	3	141	83.1	active
Or5k17 (olfactory receptor family 5 subfamily K member 17)	1	46.4	58.4	inactive
Or5k17 (olfactory receptor family 5 subfamily K member 17)	2	74.2	54	inactive
Or5k17 (olfactory receptor family 5 subfamily K member 17)	3	73.6	78.9	inactive
Gng11 (guanine nucleotide binding protein (G protein), gamma 11)	1	97.3	106	inactive
Gng11 (guanine nucleotide binding protein (G protein), gamma 11)	2	45.8	50.1	inactive
Gng11 (guanine nucleotide binding protein (G protein), gamma 11)	3	70.1	65.2	inactive
Reep6 (receptor accessory protein 6)	1	95.9	71.5	inactive
Reep6 (receptor accessory protein 6)	2	61.1	88.1	inactive
Reep6 (receptor accessory protein 6)	3	89	85.1	inactive
Rptn (repetin)	1	116	98	inactive
Rptn (repetin)	2	85.1	37.9	inactive
Rptn (repetin)	3	56.6	79.1	inactive
Nxpe2 (neurexophilin and PC-esterase domain family, member 2)	1	95.6	95.7	inactive
Nxpe2 (neurexophilin and PC-esterase domain family, member 2)	2	58.8	73.1	inactive
Nxpe2 (neurexophilin and PC-esterase domain family, member 2)	3	88.4	82.7	inactive
Psrc1 (proline/serine-rich coiled-coil 1)	1	29.5	28.4	inactive
Psrc1 (proline/serine-rich coiled-coil 1)	2	79.6	74.6	inactive
Psrc1 (proline/serine-rich coiled-coil 1)	3	144	125	active
Aste1 (asteroid homolog 1)	1	61.1	104	inactive
Aste1 (asteroid homolog 1)	2	95	93.7	inactive
Aste1 (asteroid homolog 1)	3	127	76.2	active
Gm10283 (predicted gene 10283)	1	55.1	68.7	inactive
Gm10283 (predicted gene 10283)	2	75.1	48.5	inactive
Gm10283 (predicted gene 10283)	3	102	80.5	inactive
Csnk2a2ip (casein kinase 2, alpha prime interacting protein)	1	64.9	72.2	inactive
Csnk2a2ip (casein kinase 2, alpha prime interacting protein)	2	15.1	23.6	inactive
Csnk2a2ip (casein kinase 2, alpha prime interacting protein)	3	89.8	106	inactive
Bpifa1 (BPI fold containing family A, member 1)	1	47.1	70.6	inactive
Bpifa1 (BPI fold containing family A, member 1)	2	64.2	75.4	inactive
Bpifa1 (BPI fold containing family A, member 1)	3	109	104	inactive
Erp29 (endoplasmic reticulum protein 29)	1	95	69.7	inactive
Erp29 (endoplasmic reticulum protein 29)	2	95.5	88.7	inactive
Erp29 (endoplasmic reticulum protein 29)	3	48.4	60.6	inactive
Bysl (bystin-like)	1	83.1	58.5	inactive
Bysl (bystin-like)	2	70	78.7	inactive
Bysl (bystin-like)	3	83	105	inactive

Sorted by “GFP, % of control” (low to high): some entries from above.
Target gene	reagent	GFP, % of control	viability (ATP), % of control	outcome
Pogz (pogo transposable element with ZNF domain)	2	63.6	69.3	inactive
Hycc1 (hyccin PI4KA lipid kinase complex subunit 1)	2	83.8	88.8	inactive
Snca (synuclein, alpha)	2	90.3	80.5	inactive
Hycc1 (hyccin PI4KA lipid kinase complex subunit 1)	1	95.6	75	inactive
Hycc1 (hyccin PI4KA lipid kinase complex subunit 1)	3	126	93	active
Pogz (pogo transposable element with ZNF domain)	1	164	144	active
Snca (synuclein, alpha)	1	170	129	active
